Test results reported in US11814445B2, “Cyclic polypeptides for PCSK9 inhibition” (Ra Pharmaceuticals, Inc., priority 2018, dated 2023).
For at least one compound, name, drawing or mass did not settle the structure. Numbered stars: 1 amine (or outer) side, 2 acyl side, 3 side chain; on linkers, the order of the positions; unused ones are H or OH. Square brackets hold non-standard residues; d marks the D form. Peptide text beside a SMILES is read from it. ξ: configuration not given here. 2(aminomethyl)benzoyl = O=C(c1ccccc1CN[*:1])[*:2]; Trp(5-F) = N[C@@H](Cc1c[nH]c2ccc(F)cc12)C(=O)O; X1 = O=C(CCSCc1cccc(CSCCN[*:1])c1)[*:2]; ξP = O=C(O)C1CCCN1

The chains behind the UniProt entries cited, without tags or fusion partners. Residues count along the entry.
UniProt Q8NBP7, 153-692: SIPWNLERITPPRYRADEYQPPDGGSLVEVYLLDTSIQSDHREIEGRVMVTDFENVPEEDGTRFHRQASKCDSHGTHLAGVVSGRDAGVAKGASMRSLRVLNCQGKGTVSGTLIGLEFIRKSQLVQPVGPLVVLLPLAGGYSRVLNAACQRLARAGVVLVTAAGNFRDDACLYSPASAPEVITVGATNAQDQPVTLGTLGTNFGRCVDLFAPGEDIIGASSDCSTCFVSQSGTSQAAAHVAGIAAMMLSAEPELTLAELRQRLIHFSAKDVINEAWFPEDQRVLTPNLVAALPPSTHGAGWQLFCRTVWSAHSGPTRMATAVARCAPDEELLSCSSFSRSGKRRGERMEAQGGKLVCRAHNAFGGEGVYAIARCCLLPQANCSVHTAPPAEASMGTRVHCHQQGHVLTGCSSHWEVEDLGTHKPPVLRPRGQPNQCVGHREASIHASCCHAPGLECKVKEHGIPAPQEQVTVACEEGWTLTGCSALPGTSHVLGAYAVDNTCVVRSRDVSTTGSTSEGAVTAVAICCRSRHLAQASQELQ

Molecular target: human PCSK9 / human LDLR EGFa domain (Homo sapiens, UniProt Q8NBP7)
Assay: TR-FRET assay of inhibition of the PCSK9-LDLR protein-protein interaction
Assay type: binding
Conditions: 20 nM human PCSK9, 20 nM human LDLR EGFa domain, 2 hours room temperature
Protocol: A time-resolved fluorescence resonance energy (TR-FRET) assay was used to measure inhibition of the PCSK9-LDLR protein-protein interaction. Briefly, 20 nM avitag-biotinylated human PCSK9 was incubated with 20 nM his-tagged human LDLR EGFa domain in the presence of 5 nM LANCE Ulight Streptavidin (Perkin Elmer) and 5 nM europium-Anti-6×His (Perkin Elmer) for 2 hours covered at room temperature in buffer containing 50 mM HEPES, 150 mM NaCl, 5 mM CaCl2), 0.01% BSA and 0.01% Surfactant P20. Compounds were tested in dose-response and concentrations giving half-maximal inhibition calculated using a 4-parameter fit equation.

How did the IC50 turn out when `NCCCC[C@@H]1NC(=O)CCSCc2cccc(c2)CSCCNC(=O)C2CCCN2C(=O)[C@H](Cc2ccc(O)cc2)NC(=O)c2ccccc2CNC(=O)[C@H](Cc2c[nH]c3ccc(F)cc23)NC(=O)[C@H](Cc2c[nH]c3ccc(F)cc23)NC(=O)CNC1=O` (stereo partly shown) [Compound 110] (cyclo(G[Trp(5-F)][Trp(5-F)][2(aminomethyl)benzoyl]Y[ξP][X1]K)) was run?
Its IC50 is 1 to 12.1 µM.
